The campaign covered roughly 2,300 compounds. About 140 (6.1%) were called active. Roughly 18% stayed inconclusive and do not appear here. Calls follow the shape of the dose curve; as a rule, active = well fitted activation curve with a large enough effect; inconclusive = small, poorly fitted or top-dose-only effect; inactive = flat fitted curve, though single readings scatter. The list shows a part of the results, in another mix than the full data.
Target: D(2) dopamine receptor (Homo sapiens) (UniProt P14416)
Assay: qHTS of D3 Dopamine Receptor Agonist: D2 Dopamine Receptor B-arrestin Agonist Counterscreen; also: nearly all actives have a fitted effect of over 70% in size; as to activation: % of control where 0% means no effect
Details: DiscoveRx PathHunter D2 beta-arrestin, luminescence, 90 min; series mostly up to 76.9 µM; activation: at the top concentration
Excerpt: D3 DARs represent a very important target for the treatment of several neuropsychiatric disorders. Indeed, one of the most promising therapeutic applications for the D3 DAR is in the area of addiction and related disorders. […] These findings have been observed with a number of addictive substances including cocaine, amphetamine, nicotine, and alcohol. […] Increased D3 DAR activity can thus lead to neuroprotective and neurorestorative actions in the CNS. […] This assay is used to profile the activity of the identified D3 dopamine receptor agonist against the D2 dopamine receptor. Greater than 10% of the maximum dopamine agonist response is desired for this assay. NIH Molecular Libraries Probe Production Centers Network [MLPCN] NIH Chemical Genomics Center [NCGC] MLPCN Grant: NS064831 Assay Submitter (PI): David Sibley
DiscoveRx D2 cells were thawed from frozen stock and seeded at 2,100 cells/ 3 uL/well media (DiscoveRx Plating Reagent 2) with MultiDrop Combi dispenser (Thermo Scientific, Logan, UT) onto white tissue culture treated 1536-well Aurora plates (Brooks Automation, Chelmsford, MA) and allowed to attach overnight at 37 deg C, 5% CO2. Next, 23 nL/well of compound solutions in DMSO were added with a pintool transfer (Kalypsis, San Diego, CA). […] The rest of the plate was dispensed with buffer only, 1 uL/well as well. The cells were stimulated by compounds or dopamine control for 90 minutes at 37 deg C, 5% CO2, after which 1.5 ul/well of DiscoveRx detection reagent was added with BioRAPTR FRD dispenser. The detection reagent was prepared by mixing of Galacton Star Substrate, Emerald II solution and PathHunter buffer (supplied by the assay kit) together at 1:5:19 proportion accordingly just prior to dispensing. The plates were incubated at ambient temperature for 1 hour and then the luminescent signal was read on ViewLux plate reader (PerkinElmer, Waltham, MA).
Potency is read from the fitted curve at half-maximal effect.

The chains behind the UniProt entries cited, without tags or fusion partners.
UniProt P14416, whole entry, looked up: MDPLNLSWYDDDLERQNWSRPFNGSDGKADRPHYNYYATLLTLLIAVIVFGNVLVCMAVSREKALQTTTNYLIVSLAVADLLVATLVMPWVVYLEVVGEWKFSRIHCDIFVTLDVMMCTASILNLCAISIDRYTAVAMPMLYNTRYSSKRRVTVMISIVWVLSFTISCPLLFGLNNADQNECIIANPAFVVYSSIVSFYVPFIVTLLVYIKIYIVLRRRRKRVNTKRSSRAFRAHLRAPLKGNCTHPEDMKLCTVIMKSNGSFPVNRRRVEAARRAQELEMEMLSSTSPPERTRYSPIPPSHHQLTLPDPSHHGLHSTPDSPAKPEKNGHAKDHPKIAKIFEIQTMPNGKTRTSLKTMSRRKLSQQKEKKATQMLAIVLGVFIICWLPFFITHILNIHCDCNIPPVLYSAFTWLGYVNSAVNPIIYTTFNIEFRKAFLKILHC

Row | SMILES | activation | Potency
1 | N#C/C(N)=C(/N)C#N | inactive: -5.21% | –
2 | NCC(O)c1cc(O)c(O)cc1F (stereo not drawn) | – | active: 12.6 µM
3 | COC(=O)C1=C(c2ccc(-c3ccccc3)c(F)c2)C[C@@H]2CC[C@H]1N2C(=O)NCc1ccc(F)cc1 | inactive: 1.89% | –
